Reference: patent US20150232544A1
Substitutions are numbered along the chain they refer to. Results are given in words; binding and its absence hold for the method and conditions named. Some results given as binding are weak or reduced against the parent protein; the word gives no strength.

Protein sequences, listed by entry. Tags and fused reporters are not part of them. Lines headed by an entry give the natural chain unless they say otherwise; changes in a name come on top. Chains listed by the source or under a name are the forms on record and can include a tag or linker.
eTau4 (P10636, form named): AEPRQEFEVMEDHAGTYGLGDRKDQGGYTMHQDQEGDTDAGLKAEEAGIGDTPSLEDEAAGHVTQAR
extracellular Tau (eTau) from conditioned media of human neurons (P10636, form named): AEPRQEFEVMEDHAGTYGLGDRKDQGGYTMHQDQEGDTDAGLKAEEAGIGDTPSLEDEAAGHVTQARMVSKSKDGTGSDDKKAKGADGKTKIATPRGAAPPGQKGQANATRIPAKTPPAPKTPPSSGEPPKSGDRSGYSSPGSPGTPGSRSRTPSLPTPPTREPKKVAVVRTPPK
tau in AD brain lysates (P10636, form named): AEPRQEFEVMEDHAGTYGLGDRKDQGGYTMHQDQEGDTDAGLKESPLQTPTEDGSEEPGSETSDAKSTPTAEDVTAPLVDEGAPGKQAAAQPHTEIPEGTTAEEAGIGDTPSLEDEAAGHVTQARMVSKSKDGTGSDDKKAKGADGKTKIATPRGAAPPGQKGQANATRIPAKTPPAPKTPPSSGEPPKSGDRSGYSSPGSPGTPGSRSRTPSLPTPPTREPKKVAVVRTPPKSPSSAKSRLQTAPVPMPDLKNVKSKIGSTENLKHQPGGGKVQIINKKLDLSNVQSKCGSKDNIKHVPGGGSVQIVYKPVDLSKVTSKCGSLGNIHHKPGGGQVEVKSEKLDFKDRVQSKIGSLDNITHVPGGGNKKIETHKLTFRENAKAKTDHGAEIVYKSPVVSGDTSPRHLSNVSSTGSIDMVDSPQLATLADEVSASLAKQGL
tau in P301L tau mouse brain cortex lysates (human (transgene in mouse)) (P10636, form named): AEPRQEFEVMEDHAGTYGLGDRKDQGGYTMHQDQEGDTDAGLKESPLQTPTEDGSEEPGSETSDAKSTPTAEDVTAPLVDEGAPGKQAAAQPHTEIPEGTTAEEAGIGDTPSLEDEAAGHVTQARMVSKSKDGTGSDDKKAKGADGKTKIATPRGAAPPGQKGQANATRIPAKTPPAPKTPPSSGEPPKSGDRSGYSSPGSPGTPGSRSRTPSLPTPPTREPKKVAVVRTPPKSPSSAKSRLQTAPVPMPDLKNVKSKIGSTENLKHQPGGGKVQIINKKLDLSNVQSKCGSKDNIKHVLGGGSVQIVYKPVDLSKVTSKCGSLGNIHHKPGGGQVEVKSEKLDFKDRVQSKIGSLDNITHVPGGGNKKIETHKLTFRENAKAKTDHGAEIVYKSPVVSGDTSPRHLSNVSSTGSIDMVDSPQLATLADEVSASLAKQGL
tau in iPSC-CN lysates (P10636, form named): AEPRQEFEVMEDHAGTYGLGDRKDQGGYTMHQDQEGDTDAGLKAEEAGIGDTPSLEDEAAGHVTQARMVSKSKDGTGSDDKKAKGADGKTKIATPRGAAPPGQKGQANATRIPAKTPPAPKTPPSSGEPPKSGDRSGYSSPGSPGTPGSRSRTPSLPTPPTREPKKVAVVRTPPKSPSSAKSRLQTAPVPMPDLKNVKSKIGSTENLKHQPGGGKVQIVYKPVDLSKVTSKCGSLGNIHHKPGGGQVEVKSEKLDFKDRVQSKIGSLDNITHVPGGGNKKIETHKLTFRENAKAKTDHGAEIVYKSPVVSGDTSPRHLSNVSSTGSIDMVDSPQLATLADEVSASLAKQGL

B1: humanized IPN002 variant VH2/Vk1 (antibody, V domains shown)
VH: EVHLVESGGALVKPGGSLRLSCAASGFSFSKYGMSWVRQAPGKGLEWVATISSSGSRTYYPDSVKGRFTISRDNAKNTLYLQMNSLRAEDTAMYYCSISWDGAMDYWGQGTTVTVSS
VL: DVLMTQSPLSLPVTLGQPASISCKSSQSIVHSNGNTYLEWYLQKPGQSPQLLVYKVSNRFSGVPDRFSGSGSGTDFTLKISRVEAEDVGTYYCFQGSLVPWAFGGGTKVEIK
B2: humanized IPN002 variant VH3/Vk4 (antibody, V domains shown)
VH: B1 VH with H3Q
VL: B1 VL with L3V, V53I, T90V
B3: humanized IPN002 variant VH1/Vk3 (antibody, V domains shown)
VH: B1 VH with N84S, R87K, A88S, T112S
VL: B1 VL with L3V, T90V
B4: humanized IPN002 variant VH4/Vk3 (antibody, V domains shown)
VH: B1 VH with H3Q, S97A
VL: B1 VL with L3V, T90V
B5: humanized IPN002 variant VH2/Vk4 (antibody, V domains shown)
VH: B1 VH
VL: B1 VL with L3V, V53I, T90V
B6: humanized IPN002 variant VH1/Vk2 (antibody, V domains shown)
VH: B1 VH with N84S, R87K, A88S, T112S
VL: B1 VL with L3V
B7: humanized IPN002 variant VH3/Vk3 (antibody, V domains shown)
VH: B1 VH with H3Q
VL: B1 VL with L3V, T90V
B8: humanized IPN002 variant VH4/Vk4 (antibody, V domains shown)
VH: B1 VH with H3Q, S97A
VL: B1 VL with L3V, V53I, T90V
B9: humanized IPN002 variant VH3/Vk1 (antibody, V domains shown)
VH: B1 VH with H3Q
VL: B1 VL
B10: humanized IPN002 variant VH4/Vk1 (antibody, V domains shown)
VH: B1 VH with H3Q, S97A
VL: B1 VL
B11: humanized IPN002 variant VH3/Vk2 (antibody, V domains shown)
VH: B1 VH with H3Q
VL: B1 VL with L3V
B12: humanized IPN002 variant VH1/Vk1 (antibody, V domains shown)
VH: B1 VH with N84S, R87K, A88S, T112S
VL: B1 VL
B13: humanized IPN002 variant VH2/Vk3 (antibody, V domains shown)
VH: B1 VH
VL: B1 VL with L3V, T90V
B14: humanized IPN002 variant VH1/Vk4 (antibody, V domains shown)
VH: B1 VH with N84S, R87K, A88S, T112S
VL: B1 VL with L3V, V53I, T90V
B15: humanized IPN002 variant VH2/Vk2 (antibody, V domains shown)
VH: B1 VH
VL: B1 VL with L3V
B16: humanized IPN002 variant VH4/Vk2 (antibody, V domains shown)
VH: B1 VH with H3Q, S97A
VL: B1 VL with L3V
B17: IPN001 (antibody, V domains shown)
VH: EVQLVESGEDLVKPGGSLKLSCVASGFAFSSYGMSWVRQTPDMRLEWVATISSSGSRTYFPDSVKGRLTISRDNDKNILYLQMSSLRSEDTAMYYCTITWDGAMDYWGRGISVTVSS
VL: DVLMTQTPLSLAVNLGDQASLSCRSSQTILHSNGNTYLEWYLQKPGQSPRLLIYKVSKRFSGVPDRFSGSGSGTDFTLKISRVEADDLGIYYCFQGSLVPWAFGGGTKLEIK
B18: IPN002 (antibody, V domains shown)
VH: B1 VH with R19K, A40T, G42D, G44R, R67Q, N84S, R87K, A88S, T112S
VL: B1 VL with S7T, T14S, Q17D, P18Q, Q50K, V88L, V109L

These binders were tested against eTau4 (UniProt P10636) (assay: Octet analysis).

binding, binds:
B1
B2
B3
B4
B5
B6
B7
B8
B9
B10
B11
B12
B13
B14
B15
B16

The binders below were run against extracellular Tau (eTau) from conditioned media of human neurons (human) (UniProt P10636) (assay: Western blot).

binding, binds:
B1
B13
B15
B17

These binders were tested against tau in AD brain lysates (UniProt P10636) (assay: Western blot).

binding, binds:
B1
B13
B15

The binders below were run against tau in P301L tau mouse brain cortex lysates (human (transgene in mouse)) (UniProt P10636) (assay: Western blot).

binding, binds:
B1
B13
B15

These binders were tested against tau in iPSC-CN lysates (human) (UniProt P10636) (assay: Western blot).

binding, binds:
B1
B13
B15

What follows are binders tested against tau in iPSC-CN lysates (human) (UniProt P10636) (assay: Western blot, iPSC-CN lysates).

binding, binds:
B1
B13
B15

Each binder was assayed against tau in AD brain lysates (UniProt P10636) (assay: Western blot, AD brain lysates).

binding, binds:
B1
B13
B15

The binders below were run against extracellular Tau (eTau) from conditioned media of human neurons (human) (UniProt P10636) (assay: Western blot of conditioned media).

binding, binds:
B17

The binders below were run against extracellular Tau (eTau) from conditioned media of human neurons (human) (UniProt P10636) (assay: Western blot, iPSC-CN conditioned media).

binding, binds:
B1
B13
B15

The binders below were run against tau in P301L tau mouse brain cortex lysates (human (transgene in mouse)) (UniProt P10636) (assay: Western blot, P301L tau mouse brain cortex lysates).

binding, binds:
B1
B13
B15

These binders were tested against tau in iPSC-CN lysates (human) (UniProt P10636) (assay: Western blot of neuronal lysates probed with IPN001).

binding, binds:
B17

What follows are binders tested against extracellular Tau (eTau) from conditioned media of human neurons (human) (UniProt P10636) (assay: affinity purification from iPSC-CN conditioned media).

binding, binds:
B18

What follows are binders tested against extracellular Tau (eTau) from conditioned media of human neurons (human) (UniProt P10636) (assay: Western blot of conditioned media probed with IPN001).

binding, binds:
B17

Each binder was assayed against extracellular Tau (eTau) from conditioned media of human neurons (human) (UniProt P10636) (assay: affinity isolation on antibody resin, eluate Western blotted).

binding, binds:
B18

Each binder was assayed against extracellular Tau (eTau) from conditioned media of human neurons (human) (UniProt P10636) (assay: affinity isolation on antibody resin, eluate Western blotted with IPN001).

binding, binds:
B18
